The results in this text go back to the supplement of paper PMC10849652.

Amino acid sequences for entries named in this document (tags omitted). A change or cut given only in a name is not applied to a line headed by its entry.
UniProt Q9NPG3, whole entry, looked up: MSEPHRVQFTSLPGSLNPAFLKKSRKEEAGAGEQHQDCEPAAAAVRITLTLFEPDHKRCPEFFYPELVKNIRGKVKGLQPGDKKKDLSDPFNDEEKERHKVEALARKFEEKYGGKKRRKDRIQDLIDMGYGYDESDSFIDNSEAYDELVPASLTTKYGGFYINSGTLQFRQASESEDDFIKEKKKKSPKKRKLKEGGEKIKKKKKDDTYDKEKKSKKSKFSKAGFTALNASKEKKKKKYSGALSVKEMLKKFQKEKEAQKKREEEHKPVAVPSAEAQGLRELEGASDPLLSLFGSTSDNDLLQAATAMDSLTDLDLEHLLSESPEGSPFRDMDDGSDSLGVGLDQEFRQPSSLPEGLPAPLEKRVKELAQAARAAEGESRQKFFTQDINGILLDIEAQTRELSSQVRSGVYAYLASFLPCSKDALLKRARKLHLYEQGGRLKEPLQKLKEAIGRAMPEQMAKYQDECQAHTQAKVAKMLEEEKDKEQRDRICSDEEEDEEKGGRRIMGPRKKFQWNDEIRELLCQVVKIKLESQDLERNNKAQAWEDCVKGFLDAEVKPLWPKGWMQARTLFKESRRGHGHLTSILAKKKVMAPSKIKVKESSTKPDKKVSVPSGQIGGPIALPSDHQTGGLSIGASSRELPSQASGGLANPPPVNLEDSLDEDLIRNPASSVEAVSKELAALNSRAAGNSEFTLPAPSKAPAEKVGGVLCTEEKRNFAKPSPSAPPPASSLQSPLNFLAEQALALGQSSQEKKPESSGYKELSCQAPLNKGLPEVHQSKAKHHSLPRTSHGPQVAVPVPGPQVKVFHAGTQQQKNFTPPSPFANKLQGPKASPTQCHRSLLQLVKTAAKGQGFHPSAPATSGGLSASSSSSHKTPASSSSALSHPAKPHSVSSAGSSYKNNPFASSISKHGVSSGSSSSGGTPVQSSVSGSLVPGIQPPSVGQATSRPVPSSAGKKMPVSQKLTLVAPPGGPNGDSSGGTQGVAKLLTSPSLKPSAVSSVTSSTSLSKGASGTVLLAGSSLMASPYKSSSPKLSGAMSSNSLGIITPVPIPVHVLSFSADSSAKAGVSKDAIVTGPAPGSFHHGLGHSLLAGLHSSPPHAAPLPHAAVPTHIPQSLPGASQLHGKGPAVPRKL
UniProt Q9BZX2: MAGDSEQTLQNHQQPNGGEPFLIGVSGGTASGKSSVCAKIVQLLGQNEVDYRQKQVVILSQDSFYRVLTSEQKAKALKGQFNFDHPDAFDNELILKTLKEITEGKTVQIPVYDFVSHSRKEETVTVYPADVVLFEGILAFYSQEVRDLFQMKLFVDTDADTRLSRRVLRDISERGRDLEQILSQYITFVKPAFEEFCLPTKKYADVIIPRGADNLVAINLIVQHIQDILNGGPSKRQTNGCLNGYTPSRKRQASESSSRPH
UniProt Q5T4S7, whole entry, looked up: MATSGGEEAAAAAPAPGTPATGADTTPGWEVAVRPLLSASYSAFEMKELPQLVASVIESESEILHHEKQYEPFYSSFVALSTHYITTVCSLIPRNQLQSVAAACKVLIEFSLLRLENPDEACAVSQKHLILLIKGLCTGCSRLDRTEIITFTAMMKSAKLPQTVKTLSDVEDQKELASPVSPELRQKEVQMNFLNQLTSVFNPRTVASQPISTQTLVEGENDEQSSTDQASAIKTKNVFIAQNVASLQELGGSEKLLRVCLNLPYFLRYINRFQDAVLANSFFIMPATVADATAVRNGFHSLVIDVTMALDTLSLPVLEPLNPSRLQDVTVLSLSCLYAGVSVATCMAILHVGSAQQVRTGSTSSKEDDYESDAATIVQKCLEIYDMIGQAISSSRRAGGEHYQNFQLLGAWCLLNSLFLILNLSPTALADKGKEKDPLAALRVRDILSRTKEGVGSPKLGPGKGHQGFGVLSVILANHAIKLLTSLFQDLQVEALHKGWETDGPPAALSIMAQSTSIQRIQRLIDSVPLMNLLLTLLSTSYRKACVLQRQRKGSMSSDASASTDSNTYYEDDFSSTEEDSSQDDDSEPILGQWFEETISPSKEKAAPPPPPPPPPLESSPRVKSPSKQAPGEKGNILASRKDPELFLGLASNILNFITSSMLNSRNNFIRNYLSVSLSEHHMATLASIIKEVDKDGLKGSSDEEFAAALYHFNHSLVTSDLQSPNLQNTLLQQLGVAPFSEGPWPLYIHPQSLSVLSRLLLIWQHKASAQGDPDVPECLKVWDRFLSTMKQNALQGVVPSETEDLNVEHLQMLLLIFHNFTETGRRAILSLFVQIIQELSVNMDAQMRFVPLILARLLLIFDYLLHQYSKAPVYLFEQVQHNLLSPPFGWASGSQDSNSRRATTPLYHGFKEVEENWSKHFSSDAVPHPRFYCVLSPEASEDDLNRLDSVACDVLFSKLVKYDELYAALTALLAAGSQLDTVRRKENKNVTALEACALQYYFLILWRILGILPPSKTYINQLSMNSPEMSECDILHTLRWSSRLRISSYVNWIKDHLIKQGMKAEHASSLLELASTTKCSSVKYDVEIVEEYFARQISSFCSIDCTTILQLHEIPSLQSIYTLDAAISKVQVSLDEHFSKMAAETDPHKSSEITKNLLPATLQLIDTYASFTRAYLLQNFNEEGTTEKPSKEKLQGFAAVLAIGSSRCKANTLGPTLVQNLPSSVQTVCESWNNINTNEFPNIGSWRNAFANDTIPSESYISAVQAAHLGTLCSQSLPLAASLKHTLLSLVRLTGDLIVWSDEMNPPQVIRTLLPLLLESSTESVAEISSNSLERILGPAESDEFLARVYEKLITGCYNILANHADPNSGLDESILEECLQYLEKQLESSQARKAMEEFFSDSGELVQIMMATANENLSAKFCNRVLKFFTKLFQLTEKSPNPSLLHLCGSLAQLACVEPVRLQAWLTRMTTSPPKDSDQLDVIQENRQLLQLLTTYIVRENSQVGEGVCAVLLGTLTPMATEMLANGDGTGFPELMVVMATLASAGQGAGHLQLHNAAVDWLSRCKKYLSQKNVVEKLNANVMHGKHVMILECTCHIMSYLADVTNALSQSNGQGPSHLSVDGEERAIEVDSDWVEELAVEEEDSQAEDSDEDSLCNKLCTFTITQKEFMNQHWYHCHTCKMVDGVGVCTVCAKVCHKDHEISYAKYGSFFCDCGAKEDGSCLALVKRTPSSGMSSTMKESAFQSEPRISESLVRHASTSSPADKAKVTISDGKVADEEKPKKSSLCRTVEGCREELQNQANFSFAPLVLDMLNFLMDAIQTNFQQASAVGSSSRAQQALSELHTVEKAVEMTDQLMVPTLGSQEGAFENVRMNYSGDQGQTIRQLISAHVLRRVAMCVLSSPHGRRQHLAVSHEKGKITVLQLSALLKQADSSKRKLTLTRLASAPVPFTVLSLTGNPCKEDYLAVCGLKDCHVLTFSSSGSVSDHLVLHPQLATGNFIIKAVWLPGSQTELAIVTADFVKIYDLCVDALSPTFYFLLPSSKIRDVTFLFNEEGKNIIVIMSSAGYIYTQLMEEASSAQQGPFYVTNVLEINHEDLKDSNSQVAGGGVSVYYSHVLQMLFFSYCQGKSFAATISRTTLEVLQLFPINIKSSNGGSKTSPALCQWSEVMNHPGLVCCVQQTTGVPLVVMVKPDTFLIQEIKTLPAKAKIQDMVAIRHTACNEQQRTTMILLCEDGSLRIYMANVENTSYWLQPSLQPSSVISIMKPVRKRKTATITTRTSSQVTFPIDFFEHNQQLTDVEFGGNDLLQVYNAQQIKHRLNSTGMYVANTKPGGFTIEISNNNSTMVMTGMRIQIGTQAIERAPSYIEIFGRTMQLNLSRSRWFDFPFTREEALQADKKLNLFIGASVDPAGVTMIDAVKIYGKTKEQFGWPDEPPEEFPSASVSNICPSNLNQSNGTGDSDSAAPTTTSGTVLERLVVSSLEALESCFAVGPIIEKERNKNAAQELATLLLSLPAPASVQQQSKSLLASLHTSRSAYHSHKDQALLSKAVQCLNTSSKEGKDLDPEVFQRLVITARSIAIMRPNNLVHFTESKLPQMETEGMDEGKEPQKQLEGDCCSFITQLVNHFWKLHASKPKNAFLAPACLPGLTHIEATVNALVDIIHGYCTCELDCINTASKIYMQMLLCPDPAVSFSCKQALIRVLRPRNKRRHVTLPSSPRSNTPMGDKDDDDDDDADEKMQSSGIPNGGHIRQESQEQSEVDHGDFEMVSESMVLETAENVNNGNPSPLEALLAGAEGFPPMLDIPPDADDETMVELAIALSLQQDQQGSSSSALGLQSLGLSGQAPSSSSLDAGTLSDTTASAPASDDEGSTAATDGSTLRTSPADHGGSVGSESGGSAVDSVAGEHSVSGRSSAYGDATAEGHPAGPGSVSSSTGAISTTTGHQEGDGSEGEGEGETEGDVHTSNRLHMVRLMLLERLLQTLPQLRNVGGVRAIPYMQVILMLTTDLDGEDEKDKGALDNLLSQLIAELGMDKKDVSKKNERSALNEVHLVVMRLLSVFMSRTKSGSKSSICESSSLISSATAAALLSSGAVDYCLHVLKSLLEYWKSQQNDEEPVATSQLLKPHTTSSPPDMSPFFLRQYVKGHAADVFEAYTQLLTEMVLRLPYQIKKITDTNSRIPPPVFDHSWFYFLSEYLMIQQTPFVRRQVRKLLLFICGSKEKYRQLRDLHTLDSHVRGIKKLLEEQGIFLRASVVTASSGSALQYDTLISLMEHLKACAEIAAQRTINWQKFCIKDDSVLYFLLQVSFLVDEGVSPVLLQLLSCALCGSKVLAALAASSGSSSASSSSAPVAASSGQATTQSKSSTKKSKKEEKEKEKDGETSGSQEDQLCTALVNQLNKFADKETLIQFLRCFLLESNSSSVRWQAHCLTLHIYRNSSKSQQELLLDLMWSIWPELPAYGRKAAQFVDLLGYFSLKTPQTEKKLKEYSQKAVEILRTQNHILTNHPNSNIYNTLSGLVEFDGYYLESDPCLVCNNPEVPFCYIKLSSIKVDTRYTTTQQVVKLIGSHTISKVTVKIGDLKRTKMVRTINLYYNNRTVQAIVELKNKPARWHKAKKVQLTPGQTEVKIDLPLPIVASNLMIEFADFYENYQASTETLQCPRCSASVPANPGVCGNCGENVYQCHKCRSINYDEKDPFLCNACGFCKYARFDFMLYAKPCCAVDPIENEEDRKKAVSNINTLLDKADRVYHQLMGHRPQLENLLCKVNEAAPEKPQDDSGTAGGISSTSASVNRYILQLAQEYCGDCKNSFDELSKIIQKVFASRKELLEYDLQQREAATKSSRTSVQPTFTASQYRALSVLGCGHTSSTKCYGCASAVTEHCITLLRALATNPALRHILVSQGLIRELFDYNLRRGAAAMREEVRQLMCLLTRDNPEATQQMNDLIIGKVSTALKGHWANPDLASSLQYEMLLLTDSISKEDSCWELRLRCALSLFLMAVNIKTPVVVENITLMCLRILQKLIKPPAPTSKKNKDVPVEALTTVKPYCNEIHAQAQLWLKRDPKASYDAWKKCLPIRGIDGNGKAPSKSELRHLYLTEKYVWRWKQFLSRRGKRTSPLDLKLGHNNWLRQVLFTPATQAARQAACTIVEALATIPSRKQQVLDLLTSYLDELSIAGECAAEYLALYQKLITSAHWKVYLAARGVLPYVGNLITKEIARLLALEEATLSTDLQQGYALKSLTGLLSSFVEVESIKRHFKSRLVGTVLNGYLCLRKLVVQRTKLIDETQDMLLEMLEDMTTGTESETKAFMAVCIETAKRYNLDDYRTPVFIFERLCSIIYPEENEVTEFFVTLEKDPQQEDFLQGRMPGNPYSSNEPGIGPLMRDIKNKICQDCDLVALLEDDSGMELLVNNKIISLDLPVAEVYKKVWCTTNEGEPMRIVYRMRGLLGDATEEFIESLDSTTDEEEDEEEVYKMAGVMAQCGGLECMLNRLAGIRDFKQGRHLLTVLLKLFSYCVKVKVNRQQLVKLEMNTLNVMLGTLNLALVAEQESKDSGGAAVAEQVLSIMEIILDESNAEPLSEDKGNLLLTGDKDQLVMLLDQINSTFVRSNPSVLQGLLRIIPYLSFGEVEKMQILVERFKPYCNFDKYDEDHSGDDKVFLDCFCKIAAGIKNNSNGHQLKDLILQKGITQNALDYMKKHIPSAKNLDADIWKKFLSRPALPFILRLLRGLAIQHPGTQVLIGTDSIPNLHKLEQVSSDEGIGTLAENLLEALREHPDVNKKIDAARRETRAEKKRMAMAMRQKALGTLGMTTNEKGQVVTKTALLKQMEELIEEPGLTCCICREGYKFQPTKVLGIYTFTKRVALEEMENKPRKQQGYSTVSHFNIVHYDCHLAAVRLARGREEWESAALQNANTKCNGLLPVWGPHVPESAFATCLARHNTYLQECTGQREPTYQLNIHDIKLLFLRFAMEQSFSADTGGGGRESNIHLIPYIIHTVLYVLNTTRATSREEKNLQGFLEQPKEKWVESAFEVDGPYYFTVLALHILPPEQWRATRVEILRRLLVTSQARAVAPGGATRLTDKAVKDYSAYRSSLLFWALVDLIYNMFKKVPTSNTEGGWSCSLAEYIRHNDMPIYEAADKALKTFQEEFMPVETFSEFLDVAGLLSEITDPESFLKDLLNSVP

Some of the results follow.

Compound in the test: CC[C@@H]1C(=O)N(C)c2cnc(Nc3ccc(C(=O)NC4CCN(C)CC4)cc3OC)nc2N1C1CCCC1
Kind of test: log2 fold change, soluble protein after heating vs DMSO (PISA); higher = thermal stabilisation; K562 lysate, 10 uM; active = over 0.2 and 3.5 SD of the protein, either way, in both replicates (recomputed). The procedure, abridged: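 Pellets of K562 cells were dounce-homogenised in PBS pH 7.4 with 1 mM MgCl2, and the crude extract was held at 1 mg/mL protein for a 30 min treatment with 10 μM compound. Aliquots were heated for 3 min over 48°C-58°C and pooled before NP-40 was added to 0.5% at 4°C. The supernatant from 21,000xg for 90 min was quantified by TMTpro 16plex LC-MS/MS with channel sums equalised. Values are reported from duplicates as log-two fold change in thermal stability relative to solvent controls.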
In the case of TUBB2A (UniProt Q13885), the log2 fold change is inactive: -0.007.

In the case of UBE2D1 (UniProt P51668), the log2 fold change is inactive: 0.012. Regarding TUBB4A (UniProt M0QYM7), the log2 fold change was inactive: -0.193.

For UBN1 (UniProt Q9NPG3), the log2 fold change is inactive: 0.1. Regarding TUBA3C (UniProt P0DPH7), the log2 fold change is inactive: -0.041.

For the target UBE2G2 (UniProt P60604), the log2 fold change was inactive: -0.188. Consider TXNDC17 (UniProt Q9BRA2), for which the log2 fold change was inactive: 0.031. Take UBE3B (UniProt Q7Z3V4): the log2 fold change was inactive: 0.016. For UBXN7 (UniProt O94888), the log2 fold change is inactive: 0.058.

UBA5 (UniProt Q9GZZ9): the log2 fold change was inactive: -0.026. Regarding UBE2F isoform 2 (UniProt Q969M7), the log2 fold change is inactive: 0.015.

With UCK2 (UniProt Q9BZX2), the log2 fold change was inactive: -0.037. Turning to UBE3A (UniProt Q05086), the log2 fold change was inactive: -0.004. Turning to UBE2E3 (UniProt Q969T4), the log2 fold change is inactive: 0.02.

As for UBIAD1 (UniProt Q9Y5Z9), the log2 fold change is inactive: 0.005.

Consider U2AF2 (UniProt K7ELP8), for which the log2 fold change is inactive: 0.192.

On to UBQLN1 isoform 2 (UniProt Q9UMX0), for which the log2 fold change was inactive: 0.024. Consider UBE2N (UniProt P61088), for which the log2 fold change was inactive: -0.003. Regarding UBR4 isoform 4 (UniProt Q5T4S7), the log2 fold change is inactive: -0.096. Turning to UBR4 (UniProt Q5T4S7), the log2 fold change is inactive: -0.037. Turning to UBE2J2 (UniProt Q8N2K1), the log2 fold change was inactive: -0.211. On to TUFM (UniProt P49411), for which the log2 fold change was inactive: -0.081. The result for UBE2K (UniProt D6RDM7) reads inactive: -0.124.
